A short description of the assay: qHTS Assay for Lipid Storage Modulators in Drosophila S3 Cells.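 For cell number change: cells counted by Cell Tracker Red CMTPX staining in the red channel.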 The conditions noted are these: BODIPY lipid droplet fluorescence, 18-24 h; for cell number change: measured here: cell count max response, cells fed with added oleic acid. In outline: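 Drosophila S3 cells loaded with oleic acid (400 uM, as added) and compounds at several concentrations; lipid droplets imaged by 488-nm laser-scanning cytometry, 500–530 nm intensity and object ratio to cell channel. Percent activity normalized to 20 uM Triacsin C.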
(In general: Quantitative high-throughput screening tests each substance at several concentrations.)

The mark [1] stands for this setting: measured here: cell number channel AC50, cells fed with added oleic acid.
Where [2] appears, read: measured here: lipid fluorescence (Fed channel) AC50, cells fed with added oleic acid.

The values that follow come from PubChem BioAssay AID2685 (National Center for Advancing Translational Sciences (NCATS), 2010).

Each structure is given as a SMILES string. Some of the results follow. Shown are side measurements of this screen, not its main read-out; they come without a call. The list favours compounds with an active or inconclusive main result. Words in brackets tell the shape of the fitted curve; partial curves, single points and poor fits give uncertain potencies.

One may read the AC50 as the concentration at which the activity in the assay is half-maximal. Read a low AC50 as activity at low concentration. On to `COc1cccc(-c2nc(CCl)cs2)c1OC`, for which the cell number change was -38.1%. Besides, the AC50 under setting [1] is 5.17 nM [falling, full curve, poor fit]. Also, the AC50 under setting [2] was 65.1 nM [falling, full curve].

As to `O=[N+]([O-])c1cccc(/C([O-])=C(/C(=S)Nc2ccccc2)[n+]2ccccc2)c1`, the cell number change was -1.24%.

As for `C/C=C(\C)CN1CCC(Oc2cc(C(=O)NC3CC3)ccc2OC)CC1`, the cell number change stood at 8.67%.

Regarding `CCc1ccc(CN2CCC(n3nccc3NC(=O)Cc3ccccc3)CC2)o1`, the cell number change worked out at 9.54%. Further, the AC50 under setting [2] is 2910 nM [rising, full curve].

Take `CC(C(=O)Nc1ccccc1)N(C)Cc1cccs1` (stereo unspecified): the cell number change was -13.2%.

`Cc1nccn1CCCNC(=O)CC1C(=O)NCCN1Cc1ccc(Cl)c(F)c1` (stereo unspecified): the cell number change is -11.2%. Also, the AC50 under setting [2] was 820 nM [falling, single point].

For the compound `O=C(Nc1ccc(O)c(C(=O)O)c1)c1ccc2c(c1)C(=O)N(CC1CCCO1)C2=O` (stereo unspecified), the cell number change was -2.07%.

Regarding `COc1ccc(S(=O)(=O)Cc2ccc(C(=O)N3CCN(c4cc(C)ccc4C)CC3)o2)cc1`, the cell number change was determined as 8.4%. For the same compound, the half-maximal activity concentration (AC50) under setting [1] is 3260 nM [falling, single point].

On to `COc1ccc(/C=C(/NC(C)=O)C(=O)O)cc1`, for which the cell number change worked out at 43.4%. Under setting [1], the AC50 is 1160 nM [rising, full curve, poor fit]. Besides, the concentration at half-maximal activity (AC50) under setting [2] is 20600 nM [rising, partial curve].

With `O=C(CSc1nnc(-c2ccncc2)n1C1CCCCC1)Nc1cccc(O)c1`, the cell number change was 0.404%. In addition, under setting [2], the AC50 is 29100 nM [rising, single point].

As for `COc1ccc(N/C=C\C(=O)c2ccc(C)cc2)cc1OC`, the cell number change came to 12.2%.

As to `Cc1nn(Cc2ccccc2Cl)c2sc(C(=O)NCc3ccc4c(c3)OCO4)cc12`, the AC50 was 1030 nM [rising, partial curve] under setting [1] and 461 nM [rising, partial curve, poor fit] under setting [2].

For the compound `O=C(NCCC(=O)N1CCCC1)c1ccccc1Cl`, the cell number change amounted to 13%. In addition, the AC50 under setting [2] is 1300 nM [rising, full curve].

For the compound `CCOP(=O)(OCC)C(Nc1cccc(C(F)(F)F)c1)c1ccc(C)cc1` (stereo unspecified), the cell number change is -2.24%. Besides, the AC50 under setting [2] was 651 nM [falling, partial curve, poor fit].

In the case of `Cc1ccc(Nc2nc(N)nc(CSc3nccn3C)n2)c(C)c1`, the cell number change was 16.8%. Besides, the AC50 under setting [2] is 920 nM [rising, partial curve].

Turning to `Cc1ccnc(SCCn2c(N3CCN(C)CC3)nc3c2c(=O)n(C)c(=O)n3C)n1`, the cell number change was -11.7%. Besides, the AC50 under setting [2] is 231 nM [falling, full curve, poor fit].

With `Cc1ccc(NC(=O)CSCC(=O)OC(C)C(=O)Nc2ccc(S(N)(=O)=O)cc2)c(C)c1` (stereo unspecified), the cell number change was -3.1%.

With `Cc1ccc(NC(=O)CSc2nnc(-c3cnccn3)n2C)cc1C`, the cell number change is -10.5%. The AC50 under setting [2] is 6.51 nM [rising, full curve, poor fit].

For the compound `O=C(c1cn(-c2ccccc2)nc1-c1cccs1)N(CCO)Cc1ccccc1`, the AC50 under setting [2] is 461 nM [rising, partial curve].

Consider `COc1ccc(C(=O)OCC(=O)N(C)C2CCS(=O)(=O)C2)cc1S(=O)(=O)N(C)Cc1ccccc1` (stereo unspecified), for which the cell number change was -16.4%. Moreover, the AC50 under setting [1] is 820 nM [falling, full curve, poor fit]. In addition, the AC50 under setting [2] was 10300 nM [falling, partial curve].

In the case of `Cc1ccc2c(c1)-c1c(cnn1CC(=O)N(Cc1ccco1)C1CCCCC1)CO2`, under setting [2], the AC50 was 9200 nM [rising, partial curve, poor fit].

`COC(=O)[C@@]1(Cc2ccc(F)cc2)[C@H]2c3cc(C(=O)N(C)C)n(CCSCCO)c3C[C@H]2CN1C(=O)c1ccccc1`: the cell number change is -1.7%. Besides, the AC50 under setting [2] is 4.61 nM [rising, full curve, poor fit].

Consider `O=C(NN=C1CCCC1)c1cc(-c2ccccc2)n[nH]1`, for which the cell number change stood at 7.78%. The half-maximal activity concentration (AC50) under setting [2] is 6510 nM [falling, single point].

`O=C(CNC(=O)c1cccc([N+](=O)[O-])c1)NC1CCCc2ccccc21` (stereo unspecified): the cell number change is -1.55%.

With `CCCC[C@@H](CNC)NC[C@H](Cc1ccc(O)cc1)NCCc1ccc(OCC)cc1`, the cell number change was 0.299%.

In the case of `O=S(=O)(NCCc1csc(-c2cccnc2)n1)c1cccc(F)c1`, the cell number change was -15.1%. Moreover, under setting [2], the concentration at half-maximal activity (AC50) is 7310 nM [falling, partial curve, poor fit].

As to `COc1ccc(-c2csc(NC(=O)CSc3n[nH]c(C)n3)n2)cc1`, the cell number change came out at 1.3%.

Take `CC1(c2ccc3noc(-c4ccc(F)cc4)c3c2)OCCO1`: the cell number change is 31.2%. For the same compound, under setting [1], the AC50 was 29100 nM [rising, single point]. Moreover, the AC50 under setting [2] was 25900 nM [rising, partial curve, poor fit].

`COc1cc(S(=O)(=O)N2CCOCC2)ccc1NC(=O)c1cc2c(s1)CCC2`: the concentration at half-maximal activity (AC50) is, setting by setting: under setting [1], 580 nM [rising, single point]; under setting [2], 580 nM [rising, partial curve].

For the compound `CC(=O)Nc1ccc(N(CC(=O)NCC2CCCO2)C(=O)CCC(=O)Nc2cc(C)on2)cc1` (stereo unspecified), the cell number change is 0.952%.

With `O=C(NCc1ccc2c(c1)OCO2)C1CCN(C(=O)Nc2ccc(Cl)cc2)CC1`, the cell number change was determined as 29%. The concentration at half-maximal activity (AC50) under setting [2] is 1640 nM [rising, partial curve].

For the compound `CCCOc1cc(CC(=O)NCc2ccco2)ccc1OC`, the cell number change was 155%. Further, under setting [1], the AC50 was 20600 nM [rising, partial curve].

For `CC(C)c1ccc(Nc2ncccc2C#N)cc1`, the cell number change was -1.23%. Besides, under setting [2], the AC50 was 164 nM [rising, full curve, poor fit].

On to `CCCCN1C(=O)C2NN=C(C(=O)OCC)C2C1=O` (stereo unspecified), for which the cell number change was -13%. The AC50 under setting [2] was 2060 nM [rising, single point].

Take `O=C(/C=C/c1cc2c(cc1Br)OCO2)NCc1ccc(F)cc1`: the AC50 under setting [2] was 920 nM [rising, full curve].

On to `COc1ccc(CN2C(=O)NC3(CCCc4ccccc43)C2=O)cc1F` (stereo unspecified), for which the AC50 by setting is: under setting [1], 116 nM [rising, single point]; under setting [2], 103 nM [rising, single point].

As to `COC(=O)c1cc(NC(=O)CSc2nnc(N)s2)ccc1Cl`, the cell number change is 112%. Moreover, the AC50 under setting [1] is 20600 nM [rising, partial curve].

With `COc1ccc2c(CC(=O)Nc3c(C)n(C)n(-c4ccccc4)c3=O)coc2c1`, the cell number change was 81.7%. Under setting [1], the AC50 is 29100 nM [rising, single point].

Take `O=c1sc2ccccc2c(N2CCCCC2)c1[N+](=O)[O-]`: the cell number change was -41.6%.

For `CCOC(=O)NC(=O)CSc1nc(C)cc(C(F)(F)F)c1C#N`, the cell number change came to 25.1%. Besides, the AC50 under setting [1] is 1460 nM [rising, full curve, poor fit]. For the same compound, the AC50 under setting [2] was 517 nM [rising, full curve].

Consider `CC(C)(C)c1cc(OC(=O)c2ccccc2F)ccc1O`, for which the cell number change is -48.4%. Also, the AC50 under setting [1] was 11600 nM [falling, partial curve]. Also, under setting [2], the AC50 was 8200 nM [falling, partial curve].

For the compound `O=[N+]([O-])c1cc(/C=N\O)ccc1Oc1ccc(F)cc1`, the cell number change came to 7.9%. In addition, the AC50 under setting [2] is 920 nM [rising, full curve, poor fit].

For the compound `O=C(O)Cn1cc(/C=C/[N+](=O)[O-])c2ccccc21`, the cell number change was determined as 0.601%.

With `COC(=O)Nc1nn(Cc2ccccc2F)cc1Br`, the cell number change amounted to 14.9%. For the same compound, the AC50 under setting [2] was 32600 nM [rising, single point].

For `O=C(NCCOC(=O)c1cccs1)c1cccnc1`, the cell number change is -15.7%. Moreover, the half-maximal activity concentration (AC50) under setting [2] is 5800 nM [falling, single point].

`CC(=O)Nc1ccc(S(=O)(=O)NCc2ccncc2)cc1`: the cell number change is -35.3%. Also, under setting [1], the AC50 was 11600 nM [falling, single point]. Under setting [2], the AC50 was 18400 nM [falling, partial curve].

Take `CC(=O)Nc1sc(N/N=C\c2ccccc2)nc1-c1cccs1`: the cell number change was determined as 20.2%.

Consider `O=C(Nc1ccc(F)c(F)c1)C1CCN(S(=O)(=O)c2cccc3nonc23)CC1`, for which the cell number change is 30.6%. The half-maximal activity concentration (AC50) under setting [1] was 6510 nM [rising, single point]. Besides, the AC50 under setting [2] was 130 nM [falling, full curve, poor fit].

Consider `O=C(Cn1c(CN2CCCCC2)nc2ccccc2c1=O)Nc1ccccc1`, for which the cell number change turned out to be 22.7%. Also, under setting [2], the concentration at half-maximal activity (AC50) is 2910 nM [rising, single point].

Regarding `N#CCC(=O)NCCCOC(=O)Nc1ccc(Cl)c(Cl)c1`, the cell number change was -10.6%.

On to `CN(C(=S)Nc1ccc(Oc2ccccc2)cc1)C1CCCCC1`, for which the cell number change is -0.978%. The AC50 under setting [2] is 29100 nM [rising, single point].

Turning to `COc1ccc2c(c1)OC[C@H]1[C@H]2N2C(=O)CN(Cc3ccc(C)cc3)C(=O)[C@@]2(C)[C@H]1c1ccccc1`, the cell number change stood at 8.15%. The AC50 under setting [2] was 18400 nM [falling, single point].

For `COc1ccc(-c2nnc(SC(C)C(=O)Nc3nccs3)n2Cc2ccccc2)cc1OC` (stereo unspecified), the cell number change turned out to be 0.849%. The AC50 under setting [2] is 731 nM [falling, full curve].

Regarding `O=C(Nc1ccc(Cl)cc1)c1cccc(OC(=S)N2CCOCC2)c1`, the cell number change is -10.4%. Also, the AC50 under setting [2] is 29100 nM [falling, single point].

Take `O=C(CCCN1CCC(O)(c2cccc(C(F)(F)F)c2)CC1)c1ccc(F)cc1`: the cell number change turned out to be 39%. For the same compound, the AC50 under setting [1] was 29100 nM [rising, single point]. Also, the concentration at half-maximal activity (AC50) under setting [2] is 29100 nM [rising, single point].

As for `CC(C)c1cc2c(c(O)c1O)[C@@]13CCCC(C)(C)C1CC2OC3=O` (stereo partly specified), the cell number change was -39.5%. Moreover, under setting [1], the AC50 is 23100 nM [falling, single point]. In addition, under setting [2], the AC50 is 29100 nM [falling, single point].

With `C=CCn1c(CCNC(=O)c2ccccc2F)nnc1SCc1nc2ccccc2c(=O)[nH]1`, the cell number change came out at 21.2%. Moreover, the AC50 under setting [2] is 517 nM [rising, single point].

Consider `Cc1cc(C)n2nc(C(=O)OCCOc3ccc(F)cc3)nc2n1`, for which the cell number change worked out at 6.5%. Further, under setting [2], the AC50 was 29100 nM [rising, single point].

Take `COc1ccccc1NS(=O)(=O)c1cccc(C(=O)N/N=C(\C)c2ccncc2)c1`: the cell number change was 25%.

Take `COc1ccc(S(=O)(=O)Nc2ccc(F)cc2)cc1N(C)S(=O)(=O)c1ccc(Cl)cc1`: the cell number change is -7.03%.

As for `CC1CCCC(NC(=O)CN(C)S(=O)(=O)c2cccc3cccnc23)C1C` (stereo unspecified), the cell number change came out at 34.4%. The AC50 under setting [1] is 18400 nM [rising, single point].

Take `Nn1c(Cc2ccccc2F)nnc1SCC(=O)Nc1cccc(S(=O)(=O)NC2=NCCCCC2)c1`: the cell number change was -20.7%. Also, the AC50 under setting [1] was 1460 nM [falling, partial curve, poor fit]. Besides, the AC50 under setting [2] is 3660 nM [falling, single point].
